Screening data, single-dose tests

The values are deposited in ChEMBL (CHEMBL3988442, “University of Dundee, Small-Polar-MMV Screening Library” (2021)).

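Growth of Mycobacterium tuberculosis over 4 days (cholesterol / DPPC medium with tyloxapol); the read-out is not stated. Concentration: 50 µM. Higher reads as more growth inhibition (inferred: compounds with an IC50 in retests scored well above the rest). Of about 69,000 compounds tested this way, about 370 (0.54%) reached 50% or more in at least one test.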

Each number is a percent effect as filed.
The controls that fix the scale are not given in the record; negative values are as filed.
This is an unselected part of the compounds tested.
Two or more numbers in one place are separate tests of the same structure; such repeats can differ widely.

| Compound | percent effect |
|---|---|
| `O=C(O)C1(Oc2ccc3ccccc3c2)CCN(c2ccncc2)CC1` | -1.222 & -6.544 |
| `COCCC(=O)N1CCc2cc(Cl)cc(Cl)c2C1` | 31.79 |
| `Cc1cc(C(N)=O)ccc1NC(=O)c1nc(N2CCCCC2)ncc1Cl` | -14 |
| `COc1cccc(CNc2c(O)c(=O)c2=O)c1` | -21.64 |
| `c1cnc2nc(N3CCc4c(ncn4C4CC4)C3)ccc2n1` | 1.824 |
| `O=C(O)C(F)(F)F.[H][C@@]12CNC(=O)[C@H](C)[C@]1([H])CN(CCc1ccccc1)C2` | 4.09 & -9.29 |
| `CCc1nc(C)c(CN2CCOC(Cc3cccc4ccccc34)C2)[nH]1` (stereo not drawn) | 15.94 |
| `CN(Cc1ccc(-n2cccn2)cc1)CC1CCCN1c1cccnn1` (stereo not drawn) | -0.418 |
| `NC(=O)CCS(=O)(=O)Cc1ccc(OCC(F)(F)F)cc1` | -30.37 |
| `O=C(O)C(F)(F)F.[H][C@@]12CCN(Cc3nccs3)[C@]1([H])CC[C@@H](C(=O)N(C)C)O2` | -1.062 & -5.263 |
| `CC(=O)N1CCCC1c1ccc(-c2c(C)noc2C)cn1` (stereo not drawn) | 4.077 |
| `Cc1nc[nH]c1CN(C)CC1CCCN(CCc2ccc(Cl)cc2)C1` (stereo not drawn) | -3.296 |
| `NC(=O)NC(=O)CCSCc1cc(F)cc2cccnc12` | 0.9053 |
| `Cc1noc(C)c1CN(C)C(=O)Nc1cnn(CC2CCCO2)c1` (stereo not drawn) | 20.28 |
| `CCOCC(=O)N1CCC(Oc2ccc(Cl)cn2)CC1` | 27.62 |
| `Cc1ccc(NCCCNC(=O)C2CCCN(Cc3ccco3)C2)nc1` (stereo not drawn) | -10.97 & 3.221 |
| `CC1CCN(C(=O)c2ccn(COc3ccccc3)n2)CC1` | -8.375 |
| `O=C(CO)N1CC[C@@H](N2CCN(c3ccccc3F)CC2)[C@H](O)C1` | -16.46 |
| `CC(C)(C)CC(=O)NCCn1ccc(-c2ccncc2)n1` | -6.329 |
| `CN(Cc1ccc(Cl)s1)C(=O)NCCC(=O)N1CCCCCC1` | -8.433 & -0.2491 |
| `CC1CN(CC2CCCCC2)CCN1c1ccc2nncn2n1` (stereo not drawn) | -15.04 |
| `Cc1ccc(C(=O)N2CC3(CCNCC3)c3cc(Cl)ccc32)cn1.O=C(O)C(F)(F)F.O=C(O)C(F)(F)F` | -0.5076 & -3.676 |
| `CN(C)c1cc(C2CCCN(S(=O)(=O)c3cn[nH]c3)C2)ccn1` (stereo not drawn) | 0.003578 |
| `O=C(O)C(F)(F)F.O=C(O)C(F)(F)F.[H][C@@]12CN(Cc3ccco3)C[C@H](C(=O)Nc3cccnc3)[C@]1([H])CCO2` | -31.8 |
| `CN(C)Cc1nn(C)c2c1CN(S(=O)(=O)c1ccccc1F)C2` | -8.065 & -15.77 |
| `CNc1nc2c(s1)C(c1c(F)cccc1Cl)CC(=O)N2` (stereo not drawn) | 11.74 |
| `Cc1ccccc1NC(=O)c1cncc(C2CCNCC2)n1.Cl` | 27.74 |
| `COCC1c2nnn(CC3CC3)c2CCN1C(=O)c1cccn1C` (stereo not drawn) | -1.726 & -0.5017 |
| `CNC(=O)C1(c2cnccn2)CCCN1C(=O)c1cccc(F)c1` (stereo not drawn) | -12.14 |
| `O=C(O)C(F)(F)F.O=C(O)C(F)(F)F.[H][C@@]12C[C@@H](Oc3ccc(C)cc3)CN1CCN(C(=O)c1cccnc1)C2` | -8.155 |
| `Cc1ccc(OCC2CCCN(C(=O)CCn3ccccc3=O)C2)cc1` (stereo not drawn) | -39.51 |
| `Cc1noc(OCc2ccc(C#N)cc2)n1` | -1.589 |
| `CCc1csc(C2CCCN(C(=O)c3ccco3)C2)n1` (stereo not drawn) | -12.95 |
| `O=C(O)C(F)(F)F.c1cncc(COC2COC3(CCN(c4cnccn4)CC3)C2)c1` (stereo not drawn) | -25 |
| `CCn1c(NCc2cccnc2)nc2c(C)nn(C)c2c1=O` | -2.741 |
| `CC(Cc1cccc(F)c1)C(=O)NS(=O)(=O)c1ccc2c(c1)OCCO2` (stereo not drawn) | -26.13 |
| `CCOc1ccc(Cl)c(C(=O)N2CCN(c3ccncc3)CC2)n1` | 11.4 |
| `CCCN(C(=O)c1cccnc1)c1nc2c(s1)CCc1c-2cnn1C` | -2.344 |
| `[H][C@@]12OCCN(C(=O)C3CCOCC3)[C@@]1([H])CC[C@@H]2OCc1ccncc1` | -4.183 & -3.231 |
| `CC(C)c1nnc(NC(=O)CSCc2cc(=O)n3ccccc3n2)s1` | -20.67 |
| `[H][C@@]12CS(=O)(=O)C[C@]1([H])N(C(=O)CCn1cc(C)cn1)CCN2C(=O)C1CC1` | 9.644 |
| `COc1ccccc1C(C)(C)NCc1ccc(C)o1` | -4.481 |
| `Cc1cc(C)n(CC2CN(CCOc3ccc(C#N)cc3)CCO2)n1` (stereo not drawn) | -11.84 |
| `N#Cc1ccc2c(c1)CN(C(=O)c1nc[nH]n1)C2c1cnco1` (stereo not drawn) | 11.07 |
| `N#Cc1ccnc(N2CCN(C(=O)NC3CCS(=O)(=O)C3)CC2)c1` (stereo not drawn) | -21.55 |
| `CCOc1ccc2nc(CN3CCC(CN)C3)ccc2c1` (stereo not drawn) | 29.97 |
| `CCCn1ccnc1CN1CCc2[nH]cnc2C1Cc1ccccc1` (stereo not drawn) | 10.8 |
| `CC(=O)N1CCCC2(C1)CN(c1nncs1)CCO2.O=C(O)C(F)(F)F` (stereo not drawn) | -1.336 |
| `Cc1ccccc1S(=O)(=O)N[C@@H]1CC[C@@H](N2CCNC(=O)C2)[C@@H]1O` | -9.376 & 4.931 |
| `O=C(NCc1cnc2n1CCN(c1ncc(F)cn1)CC2)C1CCC1` | -1.013 |
| `Cc1sc(-c2ccco2)nc1C(=O)NCC1CCOC1` (stereo not drawn) | -15.24 |
| `Cc1cc(NC(=O)N2CCN(c3nc(C)c(C)s3)CC2)no1` | 13.53 & -0.07604 |
| `CCOCCc1nc(CCc2ccccc2)n[nH]1` | 23.52 |
| `Cc1nn(C)c(Oc2ccc(Cl)cc2)c1CN1CCC(CN)C1` (stereo not drawn) | 4.677 |

Repeated from the top, 7 entries:

{"compound": "O=C(O)C1(Oc2ccc3ccccc3c2)CCN(c2ccncc2)CC1", "percent effect": "-1.222 & -6.544"}
{"compound": "COCCC(=O)N1CCc2cc(Cl)cc(Cl)c2C1", "percent effect": 31.79}
{"compound": "Cc1cc(C(N)=O)ccc1NC(=O)c1nc(N2CCCCC2)ncc1Cl", "percent effect": -14}
{"compound": "COc1cccc(CNc2c(O)c(=O)c2=O)c1", "percent effect": -21.64}
{"compound": "c1cnc2nc(N3CCc4c(ncn4C4CC4)C3)ccc2n1", "percent effect": 1.824}
{"compound": "O=C(O)C(F)(F)F.[H][C@@]12CNC(=O)[C@H](C)[C@]1([H])CN(CCc1ccccc1)C2", "percent effect": "4.09 & -9.29"}
{"compound": "CCc1nc(C)c(CN2CCOC(Cc3cccc4ccccc34)C2)[nH]1", "stereo": "stereo not drawn", "percent effect": 15.94}